The subject of the experiment is CD2F1 mice, L1210 leukemia ip, survival T/C. Nature of the experiment: NCI In Vivo Anticancer Drug Screen. Data for tumor model L1210 Leukemia (intraperitoneal) in CD2F1 (CDF1) mice. The following applies: higher T/C = longer survival. In a few lines: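 Tumor-bearing mice (transplanted tumor) were split into treated and vehicle control groups, and the measured endpoint of each treated group was divided by that of its vehicle controls.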

Where [1] appears, read: T/C endpoint: mean survival time, dose: 8.0 mg/kg/injection, schedule: Q01DX009 (ip), vehicle: saline.
Where [2] appears, read: T/C endpoint: mean survival time, dose: 300.0 mg/kg/injection, schedule: Q01DX001 (ip), vehicle: other.
[3] abbreviates: T/C endpoint: mean survival time, dose: 300.0 mg/kg/injection, schedule: Q01DX001 (ip), vehicle: saline.

The list is a part of this screen's results and no random one: it is rich in T/C values a quarter to a half above the control, in often repeated tests (any T/C) and in doses without a T/C. Further doses and runs are listed elsewhere. T/C gives the treated animals as a percentage of the vehicle group. Some doses have a count of surviving animals in place of a T/C: the source files T/C as zero there, which appears to mark a toxic dose or a test without result, not a measured value. Some doses without a T/C left all or most animals alive at the check, yet need not have been tolerated: survival well below the control is almost never listed, so the zero probably covers shortened survival too. Survivors were counted at the toxicity check, usually on the fifth day, unless a day is given; later deaths do not show. Schedules are NCI's codes, read here as Q, the interval in days (D) or hours (H), X, the number of doses. Some entries were tested several times; their values stand side by side, smallest first. Some structures stand for samples that the source files as different forms (salt, stereo form or complex); doses refer to the form tested. Where survival is the endpoint, the PubChem record calls one and a half times the control and up active, and a quarter to a half above the control has no call in these data; cut-offs in other NCI protocols can differ. Some T/C values are followed by the survivors on the day toxicity was checked, most often the fifth; where none is given, no animal had died by that day. Additions like (4×) give the number of equal values in this list.

Regarding `Nc1ncnc2c1ncn2C1C=C(CO)C(O)C1O` (configuration not stated), the T/C was 107 [9 of 10 alive], 122, 127 [5 of 6 alive], 129, 153 % of control (T/C endpoint: mean survival time, dose: 0.5 mg/kg/injection, schedule: Q01DX009 (ip), vehicle: saline); 129 % of control (T/C endpoint: mean survival time, dose: 1.0 mg/kg/injection, schedule: Q01DX009 (ip), vehicle: Klucel (hydroxypropylcellulose) (HPC)); 121 [9 of 10 alive], 132, 135, 152, 162 % of control (T/C endpoint: mean survival time, dose: 1.0 mg/kg/injection, schedule: Q01DX009 (ip), vehicle: saline); 127 and 140 % of control (T/C endpoint: mean survival time, dose: 2.0 mg/kg/injection, schedule: Q01DX009 (ip), vehicle: Klucel (hydroxypropylcellulose) (HPC)); 130, 132, 152, 153, 196 % of control (T/C endpoint: mean survival time, dose: 2.0 mg/kg/injection, schedule: Q01DX009 (ip), vehicle: saline); 147 % of control (T/C endpoint: mean survival time, dose: 4.0 mg/kg/injection, schedule: Q01DX009 (ip), vehicle: Klucel (hydroxypropylcellulose) (HPC)). The T/C was 144, 155, 165, 177 [9 of 10 alive], 224 % of control (T/C endpoint: mean survival time, dose: 4.0 mg/kg/injection, schedule: Q01DX009 (ip), vehicle: saline); 99 [7 of 10 alive] and 150 % of control under setting [1]. Further, the survivor count runs as follows: (T/C endpoint: mean survival time, dose: 8.0 mg/kg/injection, schedule: Q01DX009 (ip), vehicle: Klucel (hydroxypropylcellulose) (HPC)) 6 of 10; under setting [1], 0 of 10, 0 of 6, 3 of 6; (T/C endpoint: mean survival time, dose: 16.0 mg/kg/injection, schedule: Q01DX009 (ip), vehicle: saline) 0 of 6 and 3 of 6.

Consider `[NH-]C(CO)C(=O)O.[NH-]C(CO)C(=O)O.[Pd+2]` (configuration not stated), for which the survivor count by setting is: (T/C endpoint: mean survival time, dose: 200.0 mg/kg/injection, schedule: Q04DX003 (ip), vehicle: distilled water + Tween-80) 2 of 6; (T/C endpoint: mean survival time, dose: 200.0 mg/kg/injection, schedule: Q04DX003 (ip), vehicle: saline) 0 of 6; (T/C endpoint: mean survival time, dose: 200.0 mg/kg/injection, schedule: Q04DX003 (ip), vehicle: water) 0 of 6.

For `CCN1CCCSC1=S`, the survivor count under setting [2] is reported as 2 of 6.

On to `CC(=O)[O][Pb]([O]C(C)=O)([c]1ccccc1)[c]1ccccc1`, for which the survivor count (T/C endpoint: mean survival time, dose: 25.0 mg/kg/injection, schedule: Q01DX009 (ip), vehicle: Klucel (hydroxypropylcellulose) (HPC)) is listed as 6 of 6.

As to `CC(=O)Oc1ccc(OC(C)=O)c2c1C(=O)C=CC2=O`, where the note is “T/C endpoint: mean survival time, dose: 1.56 mg/kg/injection, schedule: Q04DX002 (ip), vehicle: alcohol”, the survivor count was 3 of 3.

Consider `Cc1ccc(NC(=O)N(CCCl)N=O)cc1`, for which, where the note is “T/C endpoint: mean survival time, dose: 5.4 mg/kg/injection, schedule: Q01DX015 (ip), vehicle: saline”, the T/C was 136 % of control.

As for `C=CC12CCCC[N+]1(C)CCC2` (configuration not stated), the survivor count by setting is: (T/C endpoint: mean survival time, dose: 100.0 mg/kg/injection, schedule: Q01DX001 (ip), vehicle: saline) 0 of 6; (T/C endpoint: mean survival time, dose: 200.0 mg/kg/injection, schedule: Q01DX001 (ip), vehicle: saline) 0 of 6; (T/C endpoint: mean survival time, dose: 400.0 mg/kg/injection, schedule: Q01DX001 (ip), vehicle: saline) 0 of 6.

Take `CCC(/C=C/C1OC(=O)C=CC1C)=C\C(C)C/C=C/C(C)=C/C(C)C(=O)C(C)C(O)C(C)C/C(C)=C/C(=O)O` (configuration not stated): the T/C is 128 % of control (T/C endpoint: median survival time, dose: 50.0 micrograms/kg/injection, schedule: Q01DX005 (ip), vehicle: saline + alcohol) and 127 % of control (T/C endpoint: median survival time, dose: 100.0 micrograms/kg/injection, schedule: Q01DX009 (ip), vehicle: saline + alcohol). Also, the survivor count is on record as 6 of 6 (T/C endpoint: median survival time, dose: 100.0 micrograms/kg/injection, schedule: Q01DX005 (ip), vehicle: saline + alcohol) and 5 of 6 (T/C endpoint: median survival time, dose: 200.0 micrograms/kg/injection, schedule: Q01DX009 (ip), vehicle: saline + alcohol).

As for `C#CCN(Cc1ccc2nc(N)[nH]c(=O)c2c1)c1ccc(C(=O)NC(CCC(=O)O)C(=O)O)cc1` (configuration not stated), the T/C was 130 and 142 % of control (T/C endpoint: median survival time, dose: 60.0 mg/kg/injection, schedule: Q01DX009 (ip), vehicle: sodium bicarbonate); 146 % of control (T/C endpoint: median survival time, dose: 86.4 mg/kg/injection, schedule: Q01DX005 (ip), vehicle: water); 133 % of control (2×) (T/C endpoint: median survival time, dose: 100.0 mg/kg/injection, schedule: Q01DX005 (ip), vehicle: alkali diluted with water); 128 % of control (T/C endpoint: median survival time, dose: 100.0 mg/kg/injection, schedule: Q01DX005 (ip), vehicle: water); 134 % of control (T/C endpoint: median survival time, dose: 125.0 mg/kg/injection, schedule: Q01DX005 (ip), vehicle: alkali diluted with water); 128 % of control [5 of 6 alive] (T/C endpoint: median survival time, dose: 144.0 mg/kg/injection, schedule: Q01DX005 (ip), vehicle: water). The T/C reads like this: (T/C endpoint: median survival time, dose: 150.0 mg/kg/injection, schedule: Q01DX005 (ip), vehicle: alkali diluted with water) 134 and 146 % of control; (T/C endpoint: median survival time, dose: 200.0 mg/kg/injection, schedule: Q01DX005 (ip), vehicle: water) 135 % of control. For the same compound, the survivor count by setting is: (T/C endpoint: median survival time, dose: 240.0 mg/kg/injection, schedule: Q01DX009 (ip), vehicle: sodium bicarbonate) 0 of 6; (T/C endpoint: median survival time, dose: 400.0 mg/kg/injection, schedule: Q01DX005 (ip), vehicle: water) 0 of 6 and 3 of 6; (T/C endpoint: median survival time, dose: 666.6 mg/kg/injection, schedule: Q01DX005 (ip), vehicle: water) 0 of 6; (T/C endpoint: median survival time, dose: 666.66 mg/kg/injection, schedule: Q01DX005 (ip), vehicle: water) 0 of 6.

With `COc1cccc(N=C(N)N=C(N)N)c1`, the survivor count (T/C endpoint: mean survival time, dose: 400.0 mg/kg/injection, schedule: Q01DX009 (ip), vehicle: saline) is reported as 0 of 6.

On to `Cc1csc2nccc(Cl)c12`, for which the survivor count by setting is: (T/C endpoint: mean survival time, dose: 100.0 mg/kg/injection, schedule: Q04DX002 (ip), vehicle: saline with Tween-80) 2 of 3; (T/C endpoint: mean survival time, dose: 200.0 mg/kg/injection, schedule: Q04DX002 (ip), vehicle: saline with Tween-80) 1 of 3; (T/C endpoint: mean survival time, dose: 400.0 mg/kg/injection, schedule: Q04DX002 (ip), vehicle: saline with Tween-80) 1 of 3.

As to `Cc1cc(N(CCOS(C)(=O)=O)CCOS(C)(=O)=O)ccc1C=Nc1ccc(-c2csc(Cc3ccccc3)n2)cc1`, the T/C (T/C endpoint: mean survival time, dose: 25.0 mg/kg/injection, schedule: Q01DX009 (ip), vehicle: saline with Tween-80) is 130 % of control and the T/C (T/C endpoint: mean survival time, dose: 50.0 mg/kg/injection, schedule: Q01DX009 (ip), vehicle: saline with Tween-80) was 136 % of control.

`CN(C)CC1CCC(CN(C)C)C1=O` (configuration not stated): the survivor count is, setting by setting: (T/C endpoint: mean survival time, dose: 75.0 mg/kg/injection, schedule: Q01DX001 (ip), vehicle: other) 0 of 6; (T/C endpoint: mean survival time, dose: 75.0 mg/kg/injection, schedule: Q01DX001 (ip), vehicle: saline) 0 of 6; (T/C endpoint: mean survival time, dose: 150.0 mg/kg/injection, schedule: Q01DX001 (ip), vehicle: other) 0 of 6; (T/C endpoint: mean survival time, dose: 150.0 mg/kg/injection, schedule: Q01DX001 (ip), vehicle: saline) 0 of 6; under setting [2], 0 of 6; under setting [3], 0 of 6.

In the case of `CN(Cc1cnc2nc(N)nc(N)c2n1)c1ccc(C(=O)NC(CCC(=O)O)C(=O)NC(CCC(=O)O)C(=O)O)cc1` (configuration not stated), the T/C runs as follows: (T/C endpoint: mean survival time, dose: 10.0 mg/kg/injection, schedule: Q01DX009 (ip), vehicle: sodium bicarbonate) 127 % of control; (T/C endpoint: mean survival time, dose: 50.0 mg/kg/injection, schedule: Q01DX009 (ip), vehicle: sodium bicarbonate) 131 % of control.

Regarding `Cc1[se]c2ccccc2[n+]1C`, the survivor count under setting [3] is 2 of 6.

`Nc1ccc(NC(=O)Nc2ccc(N)cc2)cc1`: the survivor count was 2 of 6 (T/C endpoint: mean survival time, dose: 25.0 mg/kg/injection, schedule: Q04DX003 (ip), vehicle: saline with Tween-80); 2 of 6 (T/C endpoint: mean survival time, dose: 50.0 mg/kg/injection, schedule: Q04DX003 (ip), vehicle: saline with Tween-80); 2 of 6 (T/C endpoint: mean survival time, dose: 100.0 mg/kg/injection, schedule: Q04DX003 (ip), vehicle: saline with Tween-80); 2 of 6 (T/C endpoint: mean survival time, dose: 200.0 mg/kg/injection, schedule: Q04DX003 (ip), vehicle: saline with Tween-80); 1 of 6 (T/C endpoint: mean survival time, dose: 400.0 mg/kg/injection, schedule: Q04DX003 (ip), vehicle: saline with Tween-80).
